Source: PMC3285591
These are yes or no findings as the source states them, for the method shown. In cells and extracts the contact can be indirect. A yes stands for co-enrichment or nearness to the bait. Other partners may have been found.

B1: Net1 (protein, UniProt Q7Z628 1-596)
chain: MEPELAAQKQPRPRRRSRRASGLSTEGATGPSADTSGSELDGRCSLRRGSSFTFLTPGPNWDFTLKRKRREKDDDVVSLSSLDLKEPSNKRVRPLARVTSLANLISPVRNGAVRRFGQTIQSFTLRGDHRSPASAQKFSSRSTVPTPAKRRSSALWSEMLDITMKESLTTREIRRQEAIYEMSRGEQDLIEDLKLARKAYHDPMLKLSIMSEEELTHIFGDLDSYIPLHEDLLTRIGEATKPDGTVEQIGHILVSWLPRLNAYRGYCSNQLAAKALLDQKKQDPRVQDFLQRCLESPFSRKLDLWSFLDIPRSRLVKYPLLLKEILKHTPKEHPDVQLLEDAILIIQGVLSDINLKKGESECQYYIDKLEYLDEKQRDPRIEASKVLLCHGELRSKSGHKLYIFLFQDILVLTRPVTRNERHSYQVYRQPIPVQELVLEDLQDGDVRMGGSFRGAFSNSEKAKNIFRIRFHDPSPAQSHTLQANDVFHKQQWFNCIRAAIAPFQSAGSPPELQGLPELHEECEGNHPSARKLTAQRRASTVSSVTQVEVDENAYRCGSGMQMAEDSKSLKTHQTQPGIRRARDKALSGGKRKETLV
B2: LIN7C (protein, UniProt Q9NUP9 1-197)
chain: MAALGEPVRLERDICRAIELLEKLQRSGEVPPQKLQALQRVLQSEFCNAVREVYEHVYETVDISSSPEVRANATAKATVAAFAASEGHSHPRVVELPKTEEGLGFNIMGGKEQNSPIYISRIIPGGIADRHGGLKRGDQLLSVNGVSVEGEHHEKAVELLKAAQGKVKLVVRYTPKVLEEMESRFEKMRSAKRRQQT

Target: HA-tagged wild type Dlg
Test: affinity purification with mass spectrometry; HA-tagged Dlg transfected into HEK293; extracts (50 mM HEPES pH 7.4, 150 mM NaCl, 50 mM NaF, 1 mM EDTA, 0.25% NP-40) on anti-HA beads 2-3 h at 4 °C; compared with mock-transfected cells

| binding | Binder |
| --- | --- |
| binds | B1 |
| binds | B2 |
